Data as given in PubChem BioAssay AID1159584 (Peter MacCallum Cancer Centre, 2016).
Test: 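Genes that CDH1-null MCF10A cells selectively depend on to survive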 (primary screen). Cells: human MCF10A breast epithelial cells, parental and CDH1-null. Reagent: siRNA against human genes. Measured: 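ATP luminescence (CellTiter-Glo) viability per line relative to mean mock wells over all plates, and the ratio of CDH1-null to parental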. Scale: CDH1-null / parental viability ratio: higher = CDH1-null cells survive relatively better than parental; CDH1-null viability vs mock: higher = more viable CDH1-null cells. Units: CDH1-null viability vs mock in fraction of mock.
Here is a random part of about 18,000 reagents tested. Not all columns of the deposit are shown. The record does not give: the amount of reagent, the time to read-out.

CNTNAP4 (GeneID 85445) — CDH1-null / parental viability ratio = 1.52; CDH1-null viability vs mock = 0.82
OR6B1 (GeneID 135946) — CDH1-null / parental viability ratio = 0.73; CDH1-null viability vs mock = 0.32
CNTD1 (GeneID 124817) — CDH1-null / parental viability ratio = 1; CDH1-null viability vs mock = 0.36
ACSL4 (GeneID 2182) — CDH1-null / parental viability ratio = 0.92; CDH1-null viability vs mock = 0.95
CCT5 (GeneID 22948) — CDH1-null / parental viability ratio = 1.21; CDH1-null viability vs mock = 0.92
FCGR1BP (GeneID 2210) — CDH1-null / parental viability ratio = 1.53; CDH1-null viability vs mock = 0.78
MAP4K5 (GeneID 11183) — CDH1-null / parental viability ratio = 1; CDH1-null viability vs mock = 0.99
RASSF1 (GeneID 11186) — CDH1-null / parental viability ratio = 1.33; CDH1-null viability vs mock = 0.8
HSPA14 (GeneID 51182) — CDH1-null / parental viability ratio = 0.74; CDH1-null viability vs mock = 0.68
B3GALNT2 (GeneID 148789) — CDH1-null / parental viability ratio = 1.01; CDH1-null viability vs mock = 0.99
REP15 (GeneID 387849) — CDH1-null / parental viability ratio = 1.59; CDH1-null viability vs mock = 0.94
CRNN (GeneID 49860) — CDH1-null / parental viability ratio = 0.88; CDH1-null viability vs mock = 0.44
ITPA (GeneID 3704) — CDH1-null / parental viability ratio = 0.93; CDH1-null viability vs mock = 0.84
CABP7 (GeneID 164633) — CDH1-null / parental viability ratio = 0.72; CDH1-null viability vs mock = 0.63
PDCD7 (GeneID 10081) — CDH1-null / parental viability ratio = 0.89; CDH1-null viability vs mock = 0.31
TMEM254 (GeneID 80195) — CDH1-null / parental viability ratio = 0.74; CDH1-null viability vs mock = 0.37
GLIPR2 (GeneID 152007) — CDH1-null / parental viability ratio = 0.92; CDH1-null viability vs mock = 0.44
CIMAP1A (GeneID 113746) — CDH1-null / parental viability ratio = 0.74; CDH1-null viability vs mock = 0.52
SNURF (GeneID 8926) — CDH1-null / parental viability ratio = 1.11; CDH1-null viability vs mock = 0.91
CDC42 (GeneID 998) — CDH1-null / parental viability ratio = 1.09; CDH1-null viability vs mock = 0.76
MGAT5 (GeneID 4249) — CDH1-null / parental viability ratio = 0.98; CDH1-null viability vs mock = 0.95
SLC25A22 (GeneID 79751) — CDH1-null / parental viability ratio = 1.33; CDH1-null viability vs mock = 0.6
HOXA6 (GeneID 3203) — CDH1-null / parental viability ratio = 0.75; CDH1-null viability vs mock = 0.48
TARS3 (GeneID 123283) — CDH1-null / parental viability ratio = 0.84; CDH1-null viability vs mock = 0.57

A run of entries of the results above, for reference:
CRNN (GeneID 49860) — CDH1-null / parental viability ratio = 0.88; CDH1-null viability vs mock = 0.44
ITPA (GeneID 3704) — CDH1-null / parental viability ratio = 0.93; CDH1-null viability vs mock = 0.84
